These are yes or no findings as the source states them, for the method shown. In cells and extracts the contact can be indirect. Some binding calls cover weakened binding; strength is not graded here.

Protein sequences, listed by entry. Tags and fused reporters are not part of them. Residues count along the entry.
UniProt P06756, residues 31-1048: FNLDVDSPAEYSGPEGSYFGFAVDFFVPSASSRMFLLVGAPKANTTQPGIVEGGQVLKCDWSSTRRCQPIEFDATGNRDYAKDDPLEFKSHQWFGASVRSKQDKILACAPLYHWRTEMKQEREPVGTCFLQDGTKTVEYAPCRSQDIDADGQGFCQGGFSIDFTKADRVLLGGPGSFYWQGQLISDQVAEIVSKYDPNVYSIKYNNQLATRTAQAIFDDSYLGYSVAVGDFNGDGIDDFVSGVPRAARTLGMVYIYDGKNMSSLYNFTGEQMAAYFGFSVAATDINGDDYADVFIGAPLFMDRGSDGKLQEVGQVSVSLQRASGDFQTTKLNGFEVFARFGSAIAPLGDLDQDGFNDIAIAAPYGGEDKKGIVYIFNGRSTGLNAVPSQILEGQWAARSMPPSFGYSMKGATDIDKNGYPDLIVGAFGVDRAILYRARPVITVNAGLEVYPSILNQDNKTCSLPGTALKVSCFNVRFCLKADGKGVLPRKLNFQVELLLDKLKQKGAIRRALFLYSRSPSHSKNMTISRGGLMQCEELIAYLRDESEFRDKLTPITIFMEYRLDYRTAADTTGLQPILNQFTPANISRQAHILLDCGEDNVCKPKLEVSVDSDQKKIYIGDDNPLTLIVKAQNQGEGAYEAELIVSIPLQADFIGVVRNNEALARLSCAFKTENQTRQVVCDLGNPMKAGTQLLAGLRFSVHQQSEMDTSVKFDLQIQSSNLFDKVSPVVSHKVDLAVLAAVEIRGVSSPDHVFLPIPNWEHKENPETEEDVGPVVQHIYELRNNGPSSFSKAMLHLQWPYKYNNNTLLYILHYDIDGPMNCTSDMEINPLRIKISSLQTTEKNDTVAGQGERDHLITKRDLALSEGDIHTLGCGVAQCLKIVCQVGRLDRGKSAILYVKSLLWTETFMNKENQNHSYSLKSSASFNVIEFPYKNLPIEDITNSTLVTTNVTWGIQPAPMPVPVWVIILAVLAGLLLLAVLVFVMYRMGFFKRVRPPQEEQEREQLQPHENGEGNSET
UniProt Q03405, residues 23-305: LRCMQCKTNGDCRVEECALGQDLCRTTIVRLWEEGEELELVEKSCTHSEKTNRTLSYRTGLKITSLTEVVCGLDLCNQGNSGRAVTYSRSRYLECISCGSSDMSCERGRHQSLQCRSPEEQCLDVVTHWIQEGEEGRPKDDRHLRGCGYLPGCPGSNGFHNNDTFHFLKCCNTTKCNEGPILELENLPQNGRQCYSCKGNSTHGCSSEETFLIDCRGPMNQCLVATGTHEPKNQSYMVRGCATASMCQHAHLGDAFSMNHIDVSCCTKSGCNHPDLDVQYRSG

Here are results for one substance from publication PMC5355267.

This assay concerns the target integrin αV (human (endogenous in A549)) (UniProt P06756). As to the kind of experiment: co-IP; A549 cells incubated with GST or DP2 at 3 ug/mL for 24 h, lysed; clarified lysates immunoprecipitated with antibody to integrin alphaV, blotted for uPAR and integrin alphaV.

Turning to “urokinase-type plasminogen activator receptor (uPAR) (from UniProt Q03405 23-305)”, the binding entry is recorded as “binds”.
